PubChem BioAssay AID652243 – Drosophila RNAi Screening Center, 2013

Screen: 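Fly regulators of androgen-dependent reporter output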 (primary screen)
System: Drosophila S2R+ cells
Reagent: long dsRNA against Drosophila genes
Timing: 72 h (48 h, then 24 h hormone)
Challenge: synthetic androgen R1881 at 10 nM for 24 h
Read-out: 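Per-well raw luminescence of the androgen-driven firefly reporter and of the Renilla control, two replicates each, without normalisation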
Direction: firefly reporter light: higher = more light from androgen-responsive reporter; Renilla control light: higher = more constitutive control signal (cell number, transfection)
Active means: 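Across duplicate plates, a knock-down whose log firefly/Renilla ratio shifted a set fold down or up from the GFP/LacZ control mean was a hit; the downward cut appears as both 1.5 and 3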
Calls: active = hit: reporter lowered or raised; inactive = no hit
In all, the deposit lists about 24,000 reagents; below is a random part of those that have a named target and a result. Of all reagents, 246 (1%) were called active. 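Plates not normalised; calls are printed but the firefly/Renilla ratio behind them is not deposited; fold cut for lowering reported inconsistently.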 Raw values are not corrected between plates. A plus sign joins genes that one reagent is predicted to hit. The record does not give: the amount of reagent.

| Target gene | DRSC id | firefly reporter light, replicate 1 | firefly reporter light, replicate 2 | Renilla control light, replicate 1 | Renilla control light, replicate 2 | Call |
| --- | --- | --- | --- | --- | --- | --- |
| TH1 (GeneID 32607) | DRSC20289 | 77131 | 94961 | 5.45e5 | 6.13e5 | inactive |
| GCS1 (GeneID 32073) | DRSC19744 | 80562 | 78949 | 4.82e5 | 5.43e5 | inactive |
| GCS1 (GeneID 32073) | DRSC25625 | 8.48e5 | 9.09e5 | 5.87e5 | 7.11e5 | inactive |
| CG31949 (GeneID 319042) | DRSC00110 | 2.50e5 | 3.22e5 | 7.08e5 | 7.88e5 | inactive |
| IP3K2 (GeneID 32285) | DRSC19500 | 3.65e5 | 4.00e5 | 2.70e6 | 3.23e6 | inactive |
| IP3K2 (GeneID 32285) | DRSC19747 | 7.62e5 | 8.32e5 | 3.62e6 | 4.09e6 | inactive |
| IP3K2 (GeneID 32285) | DRSC22614 | 5.60e5 | 5.31e5 | 1.41e6 | 1.81e6 | inactive |
| IP3K2 (GeneID 32285) | DRSC24796 | 8.51e5 | 7.64e5 | 7.98e5 | 8.70e5 | inactive |
| IP3K2 (GeneID 32285) | DRSC27191 | 5.25e5 | 4.08e5 | 6.13e5 | 5.36e5 | inactive |
| IP3K2 (GeneID 32285) | DRSC37048 | – | – | – | – | inactive |
| MED23 + CG3700 | DRSC04406 | 2.98e5 | 2.75e5 | 1.98e6 | 1.60e6 | inactive |
| MED23 + CG3700 | DRSC04407 | 5.53e5 | 6.24e5 | 1.23e6 | 1.30e6 | inactive |
| MED23 + CG3700 | DRSC24669 | 3.07e5 | 3.63e5 | 6.43e5 | 5.50e5 | inactive |
| MED23 + CG3700 | DRSC25453 | 8.48e5 | 7.56e5 | 1.04e6 | 1.22e6 | inactive |
| CG3546 (GeneID 31389) | DRSC18308 | 1.20e5 | 89576 | 4.22e6 | 3.37e6 | inactive |
| CG3546 (GeneID 31389) | DRSC23647 | 8.37e5 | 9.49e5 | 1.16e6 | 1.33e6 | inactive |
| AdamTS-B (GeneID 31490) | DRSC18346 | 3.20e5 | 3.29e5 | 3.17e6 | 3.02e6 | inactive |
| AdamTS-B (GeneID 31490) | DRSC27769 | 2.68e5 | 2.41e5 | 4.72e5 | 7.45e5 | inactive |
| Vps29 (GeneID 33295) | DRSC00666 | 7.66e5 | 8.17e5 | 1.35e6 | 1.07e6 | inactive |
| CG3038 (GeneID 30970) | DRSC18618 | 1.88e5 | 2.56e5 | 2.53e6 | 2.43e6 | inactive |
| PPO2 (GeneID 35910) | DRSC07102 | 9.12e5 | 4.18e5 | 1.36e6 | 8.17e5 | inactive |
| fat-spondin (GeneID 36919) | DRSC07617 | 1.18e6 | 1.19e6 | 1.86e6 | 1.92e6 | inactive |
| Mtap (GeneID 36955) | DRSC06890 | 7.61e5 | 6.91e5 | 9.60e5 | 4.88e5 | inactive |
| BomS3 (GeneID 50209) | DRSC21458 | 7.63e5 | 6.07e5 | 8.43e5 | 7.37e5 | inactive |
| BomS3 (GeneID 50209) | DRSC28620 | 4.47e5 | 4.36e5 | 8.53e5 | 8.01e5 | inactive |

2 consecutive reagents already listed, for reference:
| Target gene | DRSC id | firefly reporter light, replicate 1 | firefly reporter light, replicate 2 | Renilla control light, replicate 1 | Renilla control light, replicate 2 | Call |
| --- | --- | --- | --- | --- | --- | --- |
| CG3038 (GeneID 30970) | DRSC18618 | 1.88e5 | 2.56e5 | 2.53e6 | 2.43e6 | inactive |
| PPO2 (GeneID 35910) | DRSC07102 | 9.12e5 | 4.18e5 | 1.36e6 | 8.17e5 | inactive |
